Results as given in patent publication US5681925A, “Trifunctional antithrombin and antiplatelet peptides” (priority 1995, dated 1997).
Where two headings read alike, the source gives them in different places. At least one peptide structure holds a part that was inferred or is arguable (an end, a ring closure or a residue). For some of these results: The name of at least one read-out is uncertain. Bridge positions count the residues as written; N and C are the ends. Square brackets hold non-standard residues; d marks the D form. Peptide text beside a SMILES is read from it. Cha = N[C@@H](CC1CCCCC1)C(=O)O; Nle = CCCC[C@H](N)C(=O)O

Experiments:
[1] = test system: human platelets; settings: for IC50: read-out: IC50 Thrombin, human PRP, thrombin-induced
[2] = test system: human plasma; experiment: Activated partial thromboplastin time (aPTT) in human plasma; assay type: biochemical
[3] = biological target: T1, bovine thrombin (Bos taurus, UniProt P00735); experiment: Thrombin clotting time in human plasma; assay type: biochemical; settings: concentration doubling clotting time from control, triplicate
T1 construct: purchased Sigma Diagnostics, St. Louis, Mo

[4] = test system: human platelets; settings: read-out: IC50 inhibition of platelet aggregation, ADP; human PRP, ADP-induced

SMILES: CCCC[C@@H]1NC(=O)[C@H](CC(=O)O)NC(=O)CNC(=O)[C@H](CCCNC(=N)N)NC(=O)CNC(=O)[C@H](NC(=O)CNC(=O)[C@@H]2CCCN2C(=O)[C@H](CCCNC(=N)N)NC(=O)[C@@H]2CCCN2C(=O)[C@H](N)Cc2ccccc2)CSSC[C@H](C(=O)NCC(=O)N[C@@H](CC(=O)O)C(=O)N[C@@H](Cc2ccc(O)cc2)C(=O)N[C@@H](CCC(=O)O)C(=O)N2CCC[C@H]2C(=O)N[C@H](C(=O)N2CCC[C@H]2C(=O)N[C@@H](CCC(=O)O)C(=O)N[C@@H](CCC(=O)O)C(=O)N[C@@H](C)C(=O)N[C@@H](CC2CCCCC2)C(=O)N[C@H](CCC(=O)O)C(=O)O)[C@@H](C)CC)NC(=O)[C@@H]2CCCN2C1=O [Peptide 1, fPRPGcGRGD(Nle)PcGDYEPIPEEA(Cha)e] (H-[dF]PRPG[dC]GRGD[Nle]P[dC]GDYEPIPEEA[Cha][dE]-OH; disulfide 6-13)
- fold greater inhibition of thrombin-induced platelet aggregation than Peptide 4 ([1]; human platelets): approximately 1,000 fold
- fold increase over Peptide 2 in inhibition of thrombin-induced platelet aggregation ([1]; human platelets): 150 fold

SMILES: N=C(N)NCCC[C@H](NC(=O)[C@@H]1CCCN1C(=O)[C@H](N)Cc1ccccc1)C(=O)N1CCC[C@H]1C(=O)NCC(=O)O [Peptide 2c, fPRPG, reference compound] (H-[dF]PRPG-OH)
- anticoagulant activity (in words) ([2]; aPTT and thrombin time): anticoagulant activity only at much higher concetrations
- ID2 aPTT ([2]; concentration doubling clotting time from control, triplicate): > 1000 μm
- ID2 Thrombin Time [3]: 510 μm

SMILES: CCCC[C@@H]1NC(=O)[C@H](CC(=O)O)NC(=O)CNC(=O)[C@H](CCCNC(=N)N)NC(=O)[C@@H]2CCCN2C(=O)[C@H]([C@@H](C)CC)NC(=O)[C@H](CCCNC(=N)N)NC(=O)[C@@H](NC(=O)CNC(=O)[C@@H]2CCCN2C(=O)[C@H](CCCNC(=N)N)NC(=O)[C@@H]2CCCN2C(=O)[C@H](N)Cc2ccccc2)CSSC[C@@H](C(=O)NCC(=O)N[C@@H](CC(=O)O)C(=O)N[C@@H](Cc2ccc(O)cc2)C(=O)N[C@@H](CCC(=O)O)C(=O)N2CCC[C@H]2C(=O)N[C@H](C(=O)N2CCC[C@H]2C(=O)N[C@@H](CCC(=O)O)C(=O)N[C@@H](CCC(=O)O)C(=O)N[C@@H](C)C(=O)N[C@@H](CC2CCCCC2)C(=O)N[C@H](CCC(=O)O)C(=O)O)[C@@H](C)CC)NC(=O)[C@H](CC(=O)O)NC(=O)[C@H](C)NC(=O)[C@@H]2CCCN2C1=O [Peptide 5, fPRPGCRIPRGD(Nle)PADCGDYEPIPEEA(Cha)e, reference compound] (H-[dF]PRPGCRIPRGD[Nle]PADCGDYEPIPEEA[Cha][dE]-OH; disulfide 6-17)
- IC50 [4]: 1400 ± 300 nM
- IC50 [1]: 231 ± 181 nM

SMILES: CCCC[C@@H]1NC(=O)[C@H](CC(=O)O)NC(=O)CNC(=O)[C@H](CCCNC(=N)N)NC(=O)[C@@H]2CCCN2C(=O)[C@H]([C@@H](C)CC)NC(=O)[C@H](CCCNC(=N)N)NC(=O)[C@H](NC(=O)CNC(=O)[C@@H]2CCCN2C(=O)[C@H](CCCNC(=N)N)NC(=O)[C@@H]2CCCN2C(=O)[C@H](N)Cc2ccccc2)CSSC[C@H](C(=O)NCC(=O)N[C@@H](CC(=O)O)C(=O)N[C@@H](Cc2ccc(O)cc2)C(=O)N[C@@H](CCC(=O)O)C(=O)N2CCC[C@H]2C(=O)N[C@H](C(=O)N2CCC[C@H]2C(=O)N[C@@H](CCC(=O)O)C(=O)N[C@@H](CCC(=O)O)C(=O)N[C@@H](C)C(=O)N[C@@H](CC2CCCCC2)C(=O)N[C@H](CCC(=O)O)C(=O)O)[C@@H](C)CC)NC(=O)[C@H](CC(=O)O)NC(=O)[C@H](C)NC(=O)[C@@H]2CCCN2C1=O [Peptide 6, fPRPGcRIPRGD(Nle)PADcGDYEPIPEEA(Cha)e] (H-[dF]PRPG[dC]RIPRGD[Nle]PAD[dC]GDYEPIPEEA[Cha][dE]-OH; disulfide 6-17)
- IC50 [4]: 2100 ± 400 nM
- fold difference in thrombin activity between the two stereoisomers (Peptide 6 vs Peptide 5) ([1]; human platelets, greater inhibition by (D)Cys analog): 10 fold
- IC50 [1]: 21 ± 20 nM
